In experiment [1] the target is T1, UHRF1 (642–674) (GST pull-down bait) (human) (UniProt Q96T88).
T1 sequence: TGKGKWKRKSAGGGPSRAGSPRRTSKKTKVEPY
Briefly: pull-down; GST-tagged peptides incubated with TUD^USP7 (wild type or M1) and immobilized on glutathione resin; bound proteins on SDS-PAGE, Coomassie blue staining; both purified.

By UniProt entry, the sequences of proteins in these tests, tags left out. Where a name states a change or a piece, a line headed by the entry shows the natural chain unless it says otherwise.
UniProt P26358: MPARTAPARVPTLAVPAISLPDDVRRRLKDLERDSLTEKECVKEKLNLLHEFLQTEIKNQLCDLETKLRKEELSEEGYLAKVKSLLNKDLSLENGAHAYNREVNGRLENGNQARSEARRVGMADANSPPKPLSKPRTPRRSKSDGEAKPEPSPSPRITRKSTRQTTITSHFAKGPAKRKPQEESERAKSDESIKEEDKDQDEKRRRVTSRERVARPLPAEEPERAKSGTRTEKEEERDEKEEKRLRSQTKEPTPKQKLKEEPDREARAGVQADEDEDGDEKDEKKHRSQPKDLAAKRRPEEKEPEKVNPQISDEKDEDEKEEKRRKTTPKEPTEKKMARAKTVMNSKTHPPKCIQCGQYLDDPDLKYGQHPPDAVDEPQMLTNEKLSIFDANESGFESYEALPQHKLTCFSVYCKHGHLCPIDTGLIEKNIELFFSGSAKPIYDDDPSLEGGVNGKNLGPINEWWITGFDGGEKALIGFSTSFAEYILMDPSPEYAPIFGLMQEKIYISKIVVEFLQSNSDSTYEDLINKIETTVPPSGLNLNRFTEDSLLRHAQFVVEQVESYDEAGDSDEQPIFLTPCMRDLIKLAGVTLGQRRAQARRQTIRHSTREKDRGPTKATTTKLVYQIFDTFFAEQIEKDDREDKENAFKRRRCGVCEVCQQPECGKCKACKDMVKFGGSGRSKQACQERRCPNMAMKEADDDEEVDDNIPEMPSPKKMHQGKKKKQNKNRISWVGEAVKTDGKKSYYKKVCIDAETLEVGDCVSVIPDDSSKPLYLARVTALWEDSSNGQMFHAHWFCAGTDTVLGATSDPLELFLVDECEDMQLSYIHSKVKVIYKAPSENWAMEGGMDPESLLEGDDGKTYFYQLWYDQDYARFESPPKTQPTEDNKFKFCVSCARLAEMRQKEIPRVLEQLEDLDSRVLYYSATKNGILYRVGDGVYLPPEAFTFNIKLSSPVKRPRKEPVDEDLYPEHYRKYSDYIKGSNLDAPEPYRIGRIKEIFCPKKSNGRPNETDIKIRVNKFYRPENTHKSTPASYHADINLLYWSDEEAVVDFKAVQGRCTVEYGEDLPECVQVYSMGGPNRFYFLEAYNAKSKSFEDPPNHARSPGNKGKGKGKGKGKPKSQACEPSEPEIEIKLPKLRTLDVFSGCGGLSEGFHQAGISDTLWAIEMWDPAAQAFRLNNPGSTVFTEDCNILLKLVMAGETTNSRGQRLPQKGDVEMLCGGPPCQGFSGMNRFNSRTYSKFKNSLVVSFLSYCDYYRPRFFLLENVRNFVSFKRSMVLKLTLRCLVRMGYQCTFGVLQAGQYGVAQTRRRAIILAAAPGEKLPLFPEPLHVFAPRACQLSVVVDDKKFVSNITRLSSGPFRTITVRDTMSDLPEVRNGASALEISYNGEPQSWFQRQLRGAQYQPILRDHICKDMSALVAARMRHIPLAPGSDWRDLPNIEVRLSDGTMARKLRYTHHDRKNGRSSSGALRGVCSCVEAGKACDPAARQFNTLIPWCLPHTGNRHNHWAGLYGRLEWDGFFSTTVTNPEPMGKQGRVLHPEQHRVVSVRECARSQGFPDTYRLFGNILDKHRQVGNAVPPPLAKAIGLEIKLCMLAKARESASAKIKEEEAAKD
UniProt Q2YD98: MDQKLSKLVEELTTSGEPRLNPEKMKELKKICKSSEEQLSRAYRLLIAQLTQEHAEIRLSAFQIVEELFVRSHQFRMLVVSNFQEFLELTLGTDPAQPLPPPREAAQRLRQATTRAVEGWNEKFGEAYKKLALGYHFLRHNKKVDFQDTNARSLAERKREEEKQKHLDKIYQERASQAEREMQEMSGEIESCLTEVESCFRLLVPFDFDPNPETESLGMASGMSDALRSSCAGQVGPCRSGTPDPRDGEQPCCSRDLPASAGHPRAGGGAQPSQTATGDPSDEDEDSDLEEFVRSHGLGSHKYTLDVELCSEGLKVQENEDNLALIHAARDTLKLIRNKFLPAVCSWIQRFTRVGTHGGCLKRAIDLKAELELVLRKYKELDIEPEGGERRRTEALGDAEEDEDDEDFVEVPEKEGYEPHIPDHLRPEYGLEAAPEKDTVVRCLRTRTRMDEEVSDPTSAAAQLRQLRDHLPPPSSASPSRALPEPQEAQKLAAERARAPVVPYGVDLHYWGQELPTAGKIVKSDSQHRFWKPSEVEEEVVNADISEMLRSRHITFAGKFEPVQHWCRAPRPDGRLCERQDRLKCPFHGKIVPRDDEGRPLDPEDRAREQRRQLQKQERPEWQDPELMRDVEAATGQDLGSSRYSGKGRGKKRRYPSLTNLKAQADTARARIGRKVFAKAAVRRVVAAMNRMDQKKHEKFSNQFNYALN
UniProt Q93009: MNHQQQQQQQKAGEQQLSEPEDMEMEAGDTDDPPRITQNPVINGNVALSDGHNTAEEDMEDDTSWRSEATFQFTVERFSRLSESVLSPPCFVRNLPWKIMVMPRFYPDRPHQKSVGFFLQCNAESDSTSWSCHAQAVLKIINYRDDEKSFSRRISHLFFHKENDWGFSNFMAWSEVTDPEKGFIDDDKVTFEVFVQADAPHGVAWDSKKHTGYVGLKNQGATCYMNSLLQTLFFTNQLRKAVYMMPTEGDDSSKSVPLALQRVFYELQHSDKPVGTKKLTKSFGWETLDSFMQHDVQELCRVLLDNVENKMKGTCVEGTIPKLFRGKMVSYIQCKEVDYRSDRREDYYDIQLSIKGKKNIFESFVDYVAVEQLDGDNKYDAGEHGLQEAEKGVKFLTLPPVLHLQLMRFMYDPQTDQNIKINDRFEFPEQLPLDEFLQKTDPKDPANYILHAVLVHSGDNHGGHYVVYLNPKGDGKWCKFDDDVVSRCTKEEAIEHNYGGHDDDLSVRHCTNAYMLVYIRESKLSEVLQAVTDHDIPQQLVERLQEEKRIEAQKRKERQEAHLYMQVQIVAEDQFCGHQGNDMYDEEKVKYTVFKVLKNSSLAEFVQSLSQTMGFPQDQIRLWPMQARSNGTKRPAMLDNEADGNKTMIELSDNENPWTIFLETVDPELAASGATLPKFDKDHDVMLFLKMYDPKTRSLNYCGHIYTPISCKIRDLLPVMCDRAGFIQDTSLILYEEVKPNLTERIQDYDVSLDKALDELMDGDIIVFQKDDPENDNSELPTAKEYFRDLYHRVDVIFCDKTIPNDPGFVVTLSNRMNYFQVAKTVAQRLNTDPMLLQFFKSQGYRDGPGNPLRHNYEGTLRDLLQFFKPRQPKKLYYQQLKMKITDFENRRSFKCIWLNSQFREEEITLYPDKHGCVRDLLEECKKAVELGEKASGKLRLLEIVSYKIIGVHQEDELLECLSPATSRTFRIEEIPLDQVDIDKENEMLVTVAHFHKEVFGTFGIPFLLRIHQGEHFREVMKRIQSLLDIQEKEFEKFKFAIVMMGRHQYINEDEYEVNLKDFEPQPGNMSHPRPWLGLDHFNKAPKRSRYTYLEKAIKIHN

For a further experiment, the target named is FLAG-tagged DNMT1 (UniProt P26358). As to the kind of experiment: co-IP; HEK293T cells transiently co-transfected with FLAG-tagged proteins and GFP-tagged USP7 (wild-type and mutants), immunoprecipitation, immunoblotting; which tag was precipitated is not told. A general note: A western blot detects proteins with antibodies after separation by electrophoresis.

The target of the next experiment is T2, FLAG-tagged MCM4 (UniProt P33991).
T2 sequence: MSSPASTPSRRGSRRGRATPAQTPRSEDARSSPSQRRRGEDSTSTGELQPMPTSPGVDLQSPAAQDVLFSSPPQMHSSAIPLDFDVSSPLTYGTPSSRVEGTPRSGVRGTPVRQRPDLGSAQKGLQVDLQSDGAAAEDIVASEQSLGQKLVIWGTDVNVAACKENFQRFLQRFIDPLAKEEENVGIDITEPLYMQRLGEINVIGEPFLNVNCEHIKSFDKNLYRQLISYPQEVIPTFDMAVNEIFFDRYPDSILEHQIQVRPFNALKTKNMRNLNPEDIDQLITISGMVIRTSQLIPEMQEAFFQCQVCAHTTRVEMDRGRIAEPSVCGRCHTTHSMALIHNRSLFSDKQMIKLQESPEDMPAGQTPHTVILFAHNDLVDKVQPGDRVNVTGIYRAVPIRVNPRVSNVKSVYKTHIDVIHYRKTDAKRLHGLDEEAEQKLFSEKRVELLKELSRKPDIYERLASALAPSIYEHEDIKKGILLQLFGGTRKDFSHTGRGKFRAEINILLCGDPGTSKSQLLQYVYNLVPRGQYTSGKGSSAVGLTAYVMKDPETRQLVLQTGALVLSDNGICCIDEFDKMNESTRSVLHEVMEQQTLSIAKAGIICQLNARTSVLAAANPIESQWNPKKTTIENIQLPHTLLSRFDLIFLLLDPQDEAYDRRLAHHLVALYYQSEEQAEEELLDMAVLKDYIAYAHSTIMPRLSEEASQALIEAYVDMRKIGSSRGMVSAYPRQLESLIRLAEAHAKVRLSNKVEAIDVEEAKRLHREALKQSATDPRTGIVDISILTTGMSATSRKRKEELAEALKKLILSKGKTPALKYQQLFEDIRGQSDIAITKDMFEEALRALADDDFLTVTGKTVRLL
Described as above.

The target in a further experiment is T3, FLAG-tagged MCMBP (UniProt Q9BTE3).
T3 sequence: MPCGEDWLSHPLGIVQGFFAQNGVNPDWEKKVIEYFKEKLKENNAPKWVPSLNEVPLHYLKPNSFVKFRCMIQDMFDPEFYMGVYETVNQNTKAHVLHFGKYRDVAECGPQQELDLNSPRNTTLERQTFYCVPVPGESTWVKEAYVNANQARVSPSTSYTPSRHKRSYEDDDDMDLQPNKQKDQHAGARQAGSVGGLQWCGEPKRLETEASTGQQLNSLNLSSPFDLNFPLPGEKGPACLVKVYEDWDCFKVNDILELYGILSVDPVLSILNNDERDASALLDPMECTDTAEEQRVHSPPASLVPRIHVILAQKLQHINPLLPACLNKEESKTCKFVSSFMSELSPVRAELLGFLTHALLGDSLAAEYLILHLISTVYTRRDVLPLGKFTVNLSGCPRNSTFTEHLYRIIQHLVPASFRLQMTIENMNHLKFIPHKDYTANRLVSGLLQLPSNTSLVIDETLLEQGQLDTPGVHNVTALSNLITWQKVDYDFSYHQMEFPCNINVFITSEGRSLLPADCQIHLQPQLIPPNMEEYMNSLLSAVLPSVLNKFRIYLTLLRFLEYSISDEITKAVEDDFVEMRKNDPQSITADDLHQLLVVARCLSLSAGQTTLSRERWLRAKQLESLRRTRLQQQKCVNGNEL
Described as above.

The target of a further experiment is FLAG-tagged UVSSA (UniProt Q2YD98). The experiment is described as above.
The target of a further experiment is T4, FLAG-tagged WDR21a (UniProt Q8WV16).
T4 sequence: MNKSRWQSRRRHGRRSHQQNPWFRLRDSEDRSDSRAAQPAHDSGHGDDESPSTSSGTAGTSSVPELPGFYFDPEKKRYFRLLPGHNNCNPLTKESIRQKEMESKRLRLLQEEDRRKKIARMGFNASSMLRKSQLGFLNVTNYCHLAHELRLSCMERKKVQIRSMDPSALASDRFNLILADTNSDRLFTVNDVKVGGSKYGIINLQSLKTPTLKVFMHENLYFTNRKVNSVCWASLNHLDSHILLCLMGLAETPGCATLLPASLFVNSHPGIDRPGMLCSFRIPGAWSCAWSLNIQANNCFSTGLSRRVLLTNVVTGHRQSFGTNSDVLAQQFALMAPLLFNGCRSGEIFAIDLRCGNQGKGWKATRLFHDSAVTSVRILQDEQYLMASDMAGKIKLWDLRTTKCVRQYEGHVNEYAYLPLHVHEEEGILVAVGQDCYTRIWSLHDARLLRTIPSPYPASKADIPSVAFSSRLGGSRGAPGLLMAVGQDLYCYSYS
The experiment is described as above.

Results are given in words; binding and its absence hold for the method and conditions named. For part of these data: Binding can be weak; no strength is given. For part of these data: Sequences can lack the tags named with a protein. For part of these data: In cells and extracts the contact can be indirect.

Take “C-terminal Tandem UBL domain of human USP7 (TUD^USP7), wild type (domain or fragment)”: in experiment [1], the binding result is reported as “binds”.
Regarding “GFP-tagged full-length USP7 mutant M1 (M1^USP7-FL, D758A/E759A/E764A) (from UniProt Q93009) (enzyme)”, the binding entry in the experiment with FLAG-tagged DNMT1 is listed as “no binding”; in the experiment with FLAG-tagged MCM4 it was “binds”; with FLAG-tagged MCMBP, “binds”; with FLAG-tagged UVSSA, “binds”; in the experiment with FLAG-tagged WDR21a it was “binds”.
